# According to article PMC7819943, “Rice protein-binding microarrays: a tool to detect cis-acting elements near promoter regions in rice”:
# This is one part of the list.
# Target: T1, OsSMF1 (Oryza sativa, UniProt Q6ZLB0 1-436)
# T1 sequence: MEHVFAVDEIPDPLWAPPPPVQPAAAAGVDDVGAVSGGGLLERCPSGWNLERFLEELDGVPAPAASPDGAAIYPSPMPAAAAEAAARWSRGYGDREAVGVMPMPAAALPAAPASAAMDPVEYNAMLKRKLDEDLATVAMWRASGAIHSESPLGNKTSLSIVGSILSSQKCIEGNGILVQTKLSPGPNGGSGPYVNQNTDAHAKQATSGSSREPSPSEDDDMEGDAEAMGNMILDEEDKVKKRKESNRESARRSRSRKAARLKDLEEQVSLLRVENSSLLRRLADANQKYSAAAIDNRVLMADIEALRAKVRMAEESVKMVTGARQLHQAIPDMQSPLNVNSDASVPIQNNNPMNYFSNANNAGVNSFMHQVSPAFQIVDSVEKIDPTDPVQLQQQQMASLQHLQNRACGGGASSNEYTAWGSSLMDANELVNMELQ
# Test: protein-binding microarray (RPBM); PBS, 2% BSA, 51.3 ng/ul salmon testes DNA, 50 uM zinc acetate, 200 nM TF, 25 C, 1 h; high values mean tight binding
# Settings: protein: recombinant; tags: N-terminal polyhistidine and DsRed monomer fusion (pET32a); chain copies: 2; label: CyDye5-dUTP incorporated in the synthesized complementary strand; 3' TTTTT single-stranded linker to array surface; dsDNA, one strand shown
# Summary of the method: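 A custom Agilent array was converted to double-stranded form by primer extension with Cy5-dUTP and blocked with 2% BSA. Protein at 200 nM in PBS with 2% BSA, salmon testes DNA and 50 µM zinc acetate was applied for 1 h at 25 °C, followed by washing. The proteins were polyhistidine–DsRed N-terminal fusions of transcription factors, expressed in E. coli BL21-CodonPlus and Ni–NTA-purified. The binding signal is per-feature fluorescence intensity (arbitrary units) from an Axon 4000B scanner.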
row,Sequence,binding signal
1,ATATGGCATACATGAGAATTTAGAGAATTTACCATCAAATCGGAGTCACCTAGTGCAG,45500 fluorescence intensity (a.u.)
2,CCTCATCTTGGCCACGCGCACCCCGGCCACGCGTACATGGCGGAGTCACCTAGTGCAG,5320 fluorescence intensity (a.u.)
3,GATTCATTTAACAATTATATGAATGTGGGAAATGCTAGAACGGAGTCACCTAGTGCAG,44400 fluorescence intensity (a.u.)
4,GCTTGTCGTGGAGGAGGTCGACGACGTGGTAGTCCGAGAGCGGAGTCACCTAGTGCAG,4000 fluorescence intensity (a.u.)
5,AGGCTTTCTATTACGCCCACTGTATGACATGTTAGCTACTCGGAGTCACCTAGTGCAG,3810 fluorescence intensity (a.u.)
6,CTGGCGCTGAACTTAGACATCTCAGCGCCACGTCAACTGACGGAGTCACCTAGTGCAG,18700 fluorescence intensity (a.u.)
7,TACAAGGACGACTCCACATCATCATGTAGGTATTGTAGGTCGGAGTCACCTAGTGCAG,8940 fluorescence intensity (a.u.)
8,GGCGAAAGGTCTATATATATGCTGCCAACCATGTTCTTATCGGAGTCACCTAGTGCAG,3980 fluorescence intensity (a.u.)
9,CTGTGATGGCTTCTCCGCTATTGGTGCGTTTGCGTGGGTTCGGAGTCACCTAGTGCAG,3250 fluorescence intensity (a.u.)
10,AACATCACCGCAGCGCCATGCCACCACACGTCCGGAAAGTCGGAGTCACCTAGTGCAG,4460 fluorescence intensity (a.u.)
11,CTTAGGGGACGATTTTGTAACTCGATGACAAGTTGAGGGACGGAGTCACCTAGTGCAG,3580 fluorescence intensity (a.u.)
12,GAGGTCGATGTAGCCCTTGTCGTGGTCGACGCGGAGGACGCGGAGTCACCTAGTGCAG,5090 fluorescence intensity (a.u.)
13,GCCAGCTTCCCTATAGTAAGCGGTGTATTTGTATGGTTTTCGGAGTCACCTAGTGCAG,3980 fluorescence intensity (a.u.)
14,GTCATAGTGCCCGTTGCCTGGTCATGGCTAGCACGACATGCGGAGTCACCTAGTGCAG,4940 fluorescence intensity (a.u.)
15,CTTAAAAGACAAATAGATTCTTCTCACTTAAAATGACGCGCGGAGTCACCTAGTGCAG,5230 fluorescence intensity (a.u.)
16,TCTTTGATTACAATGGAGTCCACCAAGGTCTCGGCGATGCCGGAGTCACCTAGTGCAG,18800 fluorescence intensity (a.u.)
17,CGGACCGCTCCAGCGTGGGTCCCACTGTCAGTGACATGGACGGAGTCACCTAGTGCAG,3430 fluorescence intensity (a.u.)
18,CGTAGTGTTACAGTGGTATCAGAGACAGGTTGTGGGTGTCCGGAGTCACCTAGTGCAG,4130 fluorescence intensity (a.u.)
19,GCCGTAAAAGCTTCGAGCGAAACCCCACGCACGTACGCAGCGGAGTCACCTAGTGCAG,3470 fluorescence intensity (a.u.)
20,GGAGAGCAATCAAGCGAAATTGACACGTGTCACGGCAGTGCGGAGTCACCTAGTGCAG,15400 fluorescence intensity (a.u.)
21,CTCCCTCCTCCTCTCCTCCTCGCCTCCCTCCCGCGGTGGCCGGAGTCACCTAGTGCAG,4340 fluorescence intensity (a.u.)

row,Sequence,binding signal
1,TATGCTCGTCGTCATCAGTCGTAGTCTAAGTACACATCACCGGAGTCACCTAGTGCAG,8900 fluorescence intensity (a.u.)
2,TCTTTGACGTTTGAGCAAACTACCTATAATTAAAATAGGTCGGAGTCACCTAGTGCAG,28100 fluorescence intensity (a.u.)
3,CATGTGGGTCTCACGCTGACTCGTGTGCCACGTAGGACAACGGAGTCACCTAGTGCAG,17200 fluorescence intensity (a.u.)
4,ACACATGCCATTTGCTCCATTCCACCGCCTCCAGGTACGGCGGAGTCACCTAGTGCAG,3180 fluorescence intensity (a.u.)
5,AGCGTGCACACACGATGGATGACACGACGCACGCCGGCACCGGAGTCACCTAGTGCAG,3830 fluorescence intensity (a.u.)
6,GATCGAGCTGACCCGGAAATCCTGCGATGACACTTCGAATCGGAGTCACCTAGTGCAG,3310 fluorescence intensity (a.u.)
7,CAAACTAGGGAATATCAAATCCGTGCCAAGGTTTTATTATCGGAGTCACCTAGTGCAG,3240 fluorescence intensity (a.u.)
8,GAATAGTAACAATTAGTTTTGTGAATTTTGTGAAATACGCCGGAGTCACCTAGTGCAG,52300 fluorescence intensity (a.u.)
9,TTAGACTAATTCGCGAGACGAATCTTTTGAGCCTAATTAACGGAGTCACCTAGTGCAG,15200 fluorescence intensity (a.u.)
10,TTATTATTTTGGTAATATACTCATCCGTGATGGGCGCCTACGGAGTCACCTAGTGCAG,3760 fluorescence intensity (a.u.)
11,TAGAAATTCATACGGTTCGATTACATGCTAGACCTCTTGGCGGAGTCACCTAGTGCAG,3620 fluorescence intensity (a.u.)
12,TTGACACCATCGCAACCCTGGTAGCATGGACGATCTGGAACGGAGTCACCTAGTGCAG,3150 fluorescence intensity (a.u.)
13,CCACTTACAAGAAGATAATGAGAACCAAAATATTGCACACCGGAGTCACCTAGTGCAG,4530 fluorescence intensity (a.u.)
14,CCGCAACAACCACTAACCGACAACCACGTGGCCGCCGAATCGGAGTCACCTAGTGCAG,6300 fluorescence intensity (a.u.)
15,TCTAAAATTTTCATTGGAGAAATTCCATGACGTGGAGTTGCGGAGTCACCTAGTGCAG,10900 fluorescence intensity (a.u.)
16,ACAATACTACTATTTTATCATGACGATGACTGGAACTCCACGGAGTCACCTAGTGCAG,4440 fluorescence intensity (a.u.)
17,GAGGCGGGTGGGCGAGCTCCGGCGGCGGCGGGGTGGCCTTCGGAGTCACCTAGTGCAG,3660 fluorescence intensity (a.u.)
18,GCAGAGTTCAGAATTTGTTCAGTTTAGGTGCTTCTGTAATCGGAGTCACCTAGTGCAG,55600 fluorescence intensity (a.u.)
19,TCTATCTTCTCCATTTCTCATACTCAAAACTAGTTGGTGGCGGAGTCACCTAGTGCAG,3720 fluorescence intensity (a.u.)
20,GGTCCTCCAACTTGTTCAGTTGTGTCACCTCGGTCCCTAACGGAGTCACCTAGTGCAG,3940 fluorescence intensity (a.u.)
21,CGAAGATAGCACGCGAAGCTGACTGGACAGGCTTCATCTTCGGAGTCACCTAGTGCAG,4810 fluorescence intensity (a.u.)

# 2 entries drawn at random from those above, as already listed:
row,Sequence,binding signal
9,TTAGACTAATTCGCGAGACGAATCTTTTGAGCCTAATTAACGGAGTCACCTAGTGCAG,15200 fluorescence intensity (a.u.)
21,CGAAGATAGCACGCGAAGCTGACTGGACAGGCTTCATCTTCGGAGTCACCTAGTGCAG,4810 fluorescence intensity (a.u.)
